Source: publication PMC11087540

The chains behind the UniProt entries cited, without tags or fusion partners. Where a name states a change or a piece, a line headed by the entry shows the natural chain unless it says otherwise. Residues count along the entry.
UniProt P15306: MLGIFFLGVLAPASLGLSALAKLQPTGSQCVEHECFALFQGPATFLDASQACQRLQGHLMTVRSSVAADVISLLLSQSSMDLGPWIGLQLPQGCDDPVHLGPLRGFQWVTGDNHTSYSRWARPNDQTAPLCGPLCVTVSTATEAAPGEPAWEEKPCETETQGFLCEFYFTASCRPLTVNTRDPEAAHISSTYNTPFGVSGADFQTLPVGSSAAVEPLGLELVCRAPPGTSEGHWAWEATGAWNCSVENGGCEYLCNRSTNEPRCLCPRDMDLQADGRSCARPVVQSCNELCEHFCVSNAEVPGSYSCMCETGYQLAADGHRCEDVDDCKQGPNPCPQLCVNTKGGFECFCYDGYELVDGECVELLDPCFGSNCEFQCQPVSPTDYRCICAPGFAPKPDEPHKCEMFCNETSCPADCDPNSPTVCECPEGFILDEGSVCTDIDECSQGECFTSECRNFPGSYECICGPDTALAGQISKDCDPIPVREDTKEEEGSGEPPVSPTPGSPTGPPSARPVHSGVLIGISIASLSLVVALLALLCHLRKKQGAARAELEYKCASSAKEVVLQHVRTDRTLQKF
UniProt O54819, residues 29-306: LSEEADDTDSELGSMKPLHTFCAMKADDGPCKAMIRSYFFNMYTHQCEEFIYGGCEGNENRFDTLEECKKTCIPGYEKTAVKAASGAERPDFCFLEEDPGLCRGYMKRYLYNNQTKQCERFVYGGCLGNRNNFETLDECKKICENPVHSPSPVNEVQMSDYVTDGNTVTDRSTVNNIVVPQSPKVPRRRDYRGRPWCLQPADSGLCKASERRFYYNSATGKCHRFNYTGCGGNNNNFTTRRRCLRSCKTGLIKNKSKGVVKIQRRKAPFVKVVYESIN

Target: GST-tagged Thbd protein (UniProt P15306)
Assay: pull-down; GST-tagged Thbd on GSH-agarose in binding buffer (50 mM Tris/HCl, 150 mM NaCl, 1 mM EDTA, 0.5% NP40, 10% glycerol, pH 7.4); incubated with Flag-tagged TFPI from HEK293T at 4 °C for 2 h; washed 3 times, Western blot; only the target purified

- binding: binds
Substance: Flag-tagged TFPI (tissue factor pathway inhibitor) (from UniProt O54819 29-306)

Results are given in words; binding and its absence hold for the method and conditions named. Binding seen in cells or lysates may run through a third protein. A result given as binding can be weak or reduced; the word gives no strength.
